Assay results reported in PMC11260460, “A Plasmodium apicoplast-targeted unique exonuclease/FEN exhibits interspecies functional differences attributable to an insertion that alters DNA-binding”.
Results are given in words; binding and its absence hold for the method and conditions named. Binding can be weak; no strength is given.

The chains behind the UniProt entries cited, without tags or fusion partners. Where a name states a change or a piece, a line headed by the entry shows the natural chain unless it says otherwise.
UniProt Q8ILY1: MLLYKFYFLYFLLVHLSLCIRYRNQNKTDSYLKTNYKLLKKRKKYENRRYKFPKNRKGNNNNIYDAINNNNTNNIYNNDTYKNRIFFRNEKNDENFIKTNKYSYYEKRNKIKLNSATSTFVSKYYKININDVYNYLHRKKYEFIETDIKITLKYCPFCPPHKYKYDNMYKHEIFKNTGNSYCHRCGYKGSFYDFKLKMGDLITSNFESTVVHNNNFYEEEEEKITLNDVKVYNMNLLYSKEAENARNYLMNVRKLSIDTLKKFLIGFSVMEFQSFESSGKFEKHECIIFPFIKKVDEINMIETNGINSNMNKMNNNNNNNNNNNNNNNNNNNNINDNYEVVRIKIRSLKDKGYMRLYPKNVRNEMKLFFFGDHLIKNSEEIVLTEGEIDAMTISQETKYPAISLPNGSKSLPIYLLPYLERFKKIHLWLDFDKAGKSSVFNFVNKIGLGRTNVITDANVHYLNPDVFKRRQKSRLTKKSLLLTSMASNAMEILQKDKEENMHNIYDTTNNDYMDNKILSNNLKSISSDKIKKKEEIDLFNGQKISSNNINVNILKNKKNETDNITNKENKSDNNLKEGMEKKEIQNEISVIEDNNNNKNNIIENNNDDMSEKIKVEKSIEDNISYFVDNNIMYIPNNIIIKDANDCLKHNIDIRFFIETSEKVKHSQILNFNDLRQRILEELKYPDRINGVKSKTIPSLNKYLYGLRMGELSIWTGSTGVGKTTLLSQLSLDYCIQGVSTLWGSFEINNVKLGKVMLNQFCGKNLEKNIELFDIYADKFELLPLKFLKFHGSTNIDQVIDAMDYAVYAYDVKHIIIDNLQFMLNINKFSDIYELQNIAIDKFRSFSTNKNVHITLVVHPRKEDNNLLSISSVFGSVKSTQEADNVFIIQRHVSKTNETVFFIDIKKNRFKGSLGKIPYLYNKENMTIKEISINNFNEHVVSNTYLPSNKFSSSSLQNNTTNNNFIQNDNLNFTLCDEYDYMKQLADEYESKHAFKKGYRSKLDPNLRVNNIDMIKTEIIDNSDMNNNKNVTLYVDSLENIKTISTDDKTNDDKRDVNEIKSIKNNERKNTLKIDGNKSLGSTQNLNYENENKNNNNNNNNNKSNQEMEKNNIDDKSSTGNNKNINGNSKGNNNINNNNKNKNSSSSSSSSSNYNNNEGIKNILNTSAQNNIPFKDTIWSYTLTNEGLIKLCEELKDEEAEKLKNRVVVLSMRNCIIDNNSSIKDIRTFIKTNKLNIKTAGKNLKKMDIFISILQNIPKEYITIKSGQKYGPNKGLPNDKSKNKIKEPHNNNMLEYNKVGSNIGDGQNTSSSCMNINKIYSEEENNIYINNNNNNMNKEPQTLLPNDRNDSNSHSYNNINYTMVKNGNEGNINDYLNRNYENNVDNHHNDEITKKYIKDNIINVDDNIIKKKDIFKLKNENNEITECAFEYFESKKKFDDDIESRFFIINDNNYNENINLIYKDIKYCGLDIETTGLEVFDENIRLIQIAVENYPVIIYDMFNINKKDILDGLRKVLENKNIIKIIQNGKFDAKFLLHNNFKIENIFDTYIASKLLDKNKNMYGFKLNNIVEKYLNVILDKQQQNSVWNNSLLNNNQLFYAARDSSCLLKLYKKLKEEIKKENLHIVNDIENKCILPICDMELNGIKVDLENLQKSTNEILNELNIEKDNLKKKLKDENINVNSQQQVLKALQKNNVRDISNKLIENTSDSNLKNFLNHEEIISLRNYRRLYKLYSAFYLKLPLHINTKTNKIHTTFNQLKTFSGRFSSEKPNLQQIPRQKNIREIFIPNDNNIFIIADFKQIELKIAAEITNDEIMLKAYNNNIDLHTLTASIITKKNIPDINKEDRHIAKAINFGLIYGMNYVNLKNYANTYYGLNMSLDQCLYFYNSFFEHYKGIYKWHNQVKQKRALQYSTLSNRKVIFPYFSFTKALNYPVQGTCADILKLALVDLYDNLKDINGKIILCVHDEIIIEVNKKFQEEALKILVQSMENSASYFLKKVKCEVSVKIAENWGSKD

Molecular target: N-terminal glutathione S-transferase (GST)-tagged PfExo (91-577 amino acids) (P. falciparum 3D7) (UniProt O96139)
Assay: pull-down; 30 μg GST-PfExo or GST bound to glutathione agarose beads as bait; 30 μg purified PfPrex Exo/Pol added in 1 ml binding buffer (50 mM Tris-HCl pH 8.0, 150 mM NaCl, 1 mM EDTA), overnight at 4°C; eluted with 50 mM reduced glutathione; western blot with anti-6XHis and anti-GST; both purified

- binding: binds
Substance: Recombinant PfPrex Exo/Pol domain (residues 1360-2016), C-terminal 6XHis (from UniProt Q8ILY1) (domain or fragment)
